In patent US20030199424A1, “Method of treatment and/or prophylaxis” (priority 2002, published 2003):

Experiment: Body weight, metabolic signs and general health of STZ-diabetic rats
Format: in vivo, rat
Description: Induction of STZ-diabetes produced an initial ≈5-10% reduction in (mean±SEM) body weight from 233 (±1.99) g pre-STZ administration to 218 (±3.28) g at 4 wks post-STZ, followed by a gradual return to the pre-study weight over the ensuing 6-mth study period (FIG. 1).
One rat died 5 wks after the cessation of candesartan therapy.

Question: Which “Effect on hyperphagia, polydipsia, body weight and blood glucose” value (STZ-diabetic rats, chronic once-daily oral candesartan 0.5 or 2.0 mg/kg/day) does the source give for candesartan here?
Answer: None of these above parameters were significantly altered

Question: What about the “Behavioural changes after re-initiation of treatment” value (re-initiation of oral candesartan 2.0 mg/kg/day after a 6-wk interval) of the same substance?
Answer: reversed these behavioural changes
